Data taken from paper PMC10407749.
Results are given in words; binding and its absence hold for the method and conditions named. Some results given as binding are weak or reduced against the parent protein; the word gives no strength. Where a sequence is shown, tags or fusion partners need not be part of it.

By UniProt entry, the sequences of proteins in these tests, tags left out.
UniProt P26599: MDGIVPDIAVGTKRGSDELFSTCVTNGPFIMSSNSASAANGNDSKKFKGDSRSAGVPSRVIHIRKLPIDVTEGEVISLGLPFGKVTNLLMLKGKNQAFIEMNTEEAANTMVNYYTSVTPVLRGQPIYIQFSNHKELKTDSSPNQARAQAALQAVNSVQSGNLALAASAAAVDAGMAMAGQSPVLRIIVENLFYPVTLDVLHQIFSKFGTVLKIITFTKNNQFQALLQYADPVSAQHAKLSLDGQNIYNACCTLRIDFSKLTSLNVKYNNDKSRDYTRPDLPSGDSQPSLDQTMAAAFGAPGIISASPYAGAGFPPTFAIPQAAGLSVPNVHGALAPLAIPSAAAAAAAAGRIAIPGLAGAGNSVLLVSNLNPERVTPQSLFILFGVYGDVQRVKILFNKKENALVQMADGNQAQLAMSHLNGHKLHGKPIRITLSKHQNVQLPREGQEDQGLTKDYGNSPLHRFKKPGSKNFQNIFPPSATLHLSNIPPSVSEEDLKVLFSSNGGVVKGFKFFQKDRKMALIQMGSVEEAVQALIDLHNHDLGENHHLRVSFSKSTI

Legend:
GST-NDP52 = target: T1, GST-NDP52 (UniProt Q13137); assay: pull-down; GST affinity isolation (Pierce GST pull-down kit) with GST-MARCH8 or GST-NDP52 and PTBP1 expressed in BL21 (DE3) and purified beforehand, Western blot; both purified
T1 sequence: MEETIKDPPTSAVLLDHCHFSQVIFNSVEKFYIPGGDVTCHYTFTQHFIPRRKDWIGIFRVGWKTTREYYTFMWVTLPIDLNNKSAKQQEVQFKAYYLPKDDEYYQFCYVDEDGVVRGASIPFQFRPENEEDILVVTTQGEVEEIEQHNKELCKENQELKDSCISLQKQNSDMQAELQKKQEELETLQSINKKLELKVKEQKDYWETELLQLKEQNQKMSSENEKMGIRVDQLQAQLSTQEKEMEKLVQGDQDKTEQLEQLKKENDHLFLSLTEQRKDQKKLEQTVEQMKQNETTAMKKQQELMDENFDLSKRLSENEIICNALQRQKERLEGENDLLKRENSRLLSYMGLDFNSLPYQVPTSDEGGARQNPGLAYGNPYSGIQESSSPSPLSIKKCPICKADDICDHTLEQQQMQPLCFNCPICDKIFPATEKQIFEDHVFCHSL

GST-MARCH8 = target: T2, GST-MARCH8 (UniProt Q5T0T0); assay: as above
T2 sequence: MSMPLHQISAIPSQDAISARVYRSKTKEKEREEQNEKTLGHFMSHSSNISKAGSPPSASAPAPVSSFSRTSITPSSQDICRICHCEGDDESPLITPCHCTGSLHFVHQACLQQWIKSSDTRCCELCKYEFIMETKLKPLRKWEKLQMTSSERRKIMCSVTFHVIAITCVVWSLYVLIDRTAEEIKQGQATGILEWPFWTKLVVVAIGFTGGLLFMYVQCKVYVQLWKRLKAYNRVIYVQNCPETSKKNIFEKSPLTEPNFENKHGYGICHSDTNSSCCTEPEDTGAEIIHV

- binding (GST-NDP52): binds
- binding (GST-MARCH8): binds
Substance: PTBP1, full length, expressed in E. coli BL21 (DE3) (from UniProt P26599 1-557)
